Measurements reported in PMC5339343, “Evaluation of Rint1 as a modifier of intestinal tumorigenesis and cancer risk” (PLoS ONE, 2017).
Results are given in words; binding and its absence hold for the method and conditions named. In cells and extracts the contact can be indirect. Some results given as binding are weak or reduced against the parent protein; the word gives no strength.

Sequences of proteins named here, by UniProt entry; tags and fusion partners are left off. A change or cut given only in a name is not applied to a line headed by its entry.
UniProt Q6NUQ1: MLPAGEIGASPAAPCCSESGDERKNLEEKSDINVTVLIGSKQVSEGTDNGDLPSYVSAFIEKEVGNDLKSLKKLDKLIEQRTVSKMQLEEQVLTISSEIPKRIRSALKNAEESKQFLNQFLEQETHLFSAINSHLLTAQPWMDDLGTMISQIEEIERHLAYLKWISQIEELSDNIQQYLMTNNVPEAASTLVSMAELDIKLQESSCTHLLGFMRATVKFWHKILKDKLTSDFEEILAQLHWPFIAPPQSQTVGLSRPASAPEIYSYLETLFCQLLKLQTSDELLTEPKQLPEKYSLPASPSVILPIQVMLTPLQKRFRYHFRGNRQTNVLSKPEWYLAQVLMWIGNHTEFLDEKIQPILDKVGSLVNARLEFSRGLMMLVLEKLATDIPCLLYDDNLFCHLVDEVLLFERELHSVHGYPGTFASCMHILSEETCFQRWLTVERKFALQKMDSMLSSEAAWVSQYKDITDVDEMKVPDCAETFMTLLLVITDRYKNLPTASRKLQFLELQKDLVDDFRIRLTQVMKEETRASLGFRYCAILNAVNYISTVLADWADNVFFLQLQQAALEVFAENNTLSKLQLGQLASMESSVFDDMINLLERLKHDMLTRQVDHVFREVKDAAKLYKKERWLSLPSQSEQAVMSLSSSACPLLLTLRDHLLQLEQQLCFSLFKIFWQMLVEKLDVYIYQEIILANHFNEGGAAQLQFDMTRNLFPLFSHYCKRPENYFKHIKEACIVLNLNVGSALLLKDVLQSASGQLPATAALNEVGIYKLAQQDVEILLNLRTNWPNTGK

Legend:
Experiment in all cases: co-IP; FLAG-RINT1 plasmids transfected into HEK293T; lysate in TNE buffer (10 mM Tris acetate, 0.5% NP-40, 2 mM EDTA); anti-FLAG M2 affinity gel overnight, eluted with FLAG peptide; blot for endogenous ZW10
[1] = target: FLAG-tagged full-length human RINT1 I152M; I168T (human) (UniProt Q6NUQ1)
[2] = target: FLAG-tagged full-length human RINT1, wild type (human) (UniProt Q6NUQ1)
[3] = target: FLAG-tagged full-length human RINT1 I152M (human) (UniProt Q6NUQ1)
[4] = target: FLAG-tagged full-length human RINT1 I168T (human) (UniProt Q6NUQ1)

binding [1]: binds
binding [2]: binds
binding [3]: binds
binding [4]: binds
B1: endogenous ZW10 (protein, UniProt O43264 1-779)
chain: MASFVTEVLAHSGRLEKEDLGTRISRLTRRVEEIKGEVCNMISKKYSEFLPSMQSAQGLITQVDKLSEDIDLLKSRIESEVRRDLHVSTGEFTDLKQQLERDSVVLSLLKQLQEFSTAIEEYNCALTEKKYVTGAQRLEEAQKCLKLLKSRKCFDLKILKSLSMELTIQKQNILYHLGEEWQKLIVWKFPPSKDTSSLESYLQTELHLYTEQSHKEEKTPMPPISSVLLAFSVLGELHSKLKSFGQMLLKYILRPLASCPSLHAVIESQPNIVIIRFESIMTNLEYPSPSEVFTKIRLVLEVLQKQLLDLPLDTDLENEKTSTVPLAEMLGDMIWEDLSECLIKNCLVYSIPTNSSKLQQYEEIIQSTEEFENALKEMRFLKGDTTDLLKYARNINSHFANKKCQDVIVAARNLMTSEIHNTVKIIPDSKINVPELPTPDEDNKLEVQKVSNTQYHEVMNLEPENTLDQHSFSLPTCRISESVKKLMELAYQTLLEATTSSDQCAVQLFYSVRNIFHLFHDVVPTYHKENLQKLPQLAAIHHNNCMYIAHHLLTLGHQFRLRLAPILCDGTATFVDLVPGFRRLGTECFLAQMRAQKGELLERLSSARNFSNMDDEENYSAASKAVRQVLHQLKRLGIVWQDVLPVNIYCKAMGTLLNTAISEVIGKITALEDISTEDGDRLYSLCKTVMDEGPQVFAPLSEESKNKKYQEEVPVYVPKWMPFKELMMMLQASLQEIGDRWADGKGPLAAAFSSSEVKALIRALFQNTERRAAALAKIK
